{"source": "PubChem BioAssay AID652272 (Drosophila RNAi Screening Center, 2013)", "purpose": "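Finding fly genes that regulate Hedgehog signal transduction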 (primary screen)", "system": "Drosophila clone 8 (Cl8) cells", "reagent": "long dsRNA against Drosophila genes", "read-out": "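Firefly light from a Hedgehog-responsive ptc promoter reporter and Renilla reference light, both read on a plate reader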", "reading the numbers": "firefly Hh reporter signal: higher = more ptc reporter light; Renilla reference signal: higher = more Renilla control light", "rule for the call": "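Hit when the z-score averaged over two replicates is under -2 or over +3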", "meaning of the calls": "active = hit: reporter lowered or raised; inactive = not a hit", "note": "The screen tested about 21,000 reagents; this is an unselected part of those that have a named target and a result. Of all reagents, 503 (2.4%) got an active call. 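Raw plate light values, not normalised; calls rest on replicate z-scores that were not deposited; hits include reporter decreases as well as increases.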 A plus sign joins genes that one reagent is predicted to hit. No sequences are given here. The record does not give: the amount of reagent, the time to read-out."}
{"gene":"CG42675","dsRNA":"DRSC12157","firefly Hh reporter signal, replicate 1":1.01e5,"firefly Hh reporter signal, replicate 2":71500,"Renilla reference signal, replicate 1":4086,"Renilla reference signal, replicate 2":2640,"call":"inactive"}
{"gene":"norpA (no receptor potential A)","dsRNA":"DRSC18806","firefly Hh reporter signal, replicate 1":92253,"firefly Hh reporter signal, replicate 2":1.04e5,"Renilla reference signal, replicate 1":1528,"Renilla reference signal, replicate 2":3554,"call":"inactive"}
{"gene":"CG13085","dsRNA":"DRSC02189","firefly Hh reporter signal, replicate 1":94586,"firefly Hh reporter signal, replicate 2":41904,"Renilla reference signal, replicate 1":2586,"Renilla reference signal, replicate 2":3990,"call":"inactive"}
{"gene":"Mipp2 (Multiple inositol polyphosphate phosphatase 2)","dsRNA":"DRSC18682","firefly Hh reporter signal, replicate 1":79650,"firefly Hh reporter signal, replicate 2":71821,"Renilla reference signal, replicate 1":1831,"Renilla reference signal, replicate 2":1744,"call":"inactive"}
{"gene":"CG2157","dsRNA":"DRSC19836","firefly Hh reporter signal, replicate 1":72832,"firefly Hh reporter signal, replicate 2":1.90e5,"Renilla reference signal, replicate 1":2099,"Renilla reference signal, replicate 2":7353,"call":"inactive"}
{"gene":"Obp58b (Odorant-binding protein 58b)","dsRNA":"DRSC04161","firefly Hh reporter signal, replicate 1":89920,"firefly Hh reporter signal, replicate 2":53005,"Renilla reference signal, replicate 1":2291,"Renilla reference signal, replicate 2":4380,"call":"inactive"}
{"gene":"CG11714","dsRNA":"DRSC09857","firefly Hh reporter signal, replicate 1":1.01e5,"firefly Hh reporter signal, replicate 2":48019,"Renilla reference signal, replicate 1":5272,"Renilla reference signal, replicate 2":2592,"call":"inactive"}
{"gene":"Tango8 (Transport and Golgi organization 8)","dsRNA":"DRSC06474","firefly Hh reporter signal, replicate 1":63436,"firefly Hh reporter signal, replicate 2":32513,"Renilla reference signal, replicate 1":1665,"Renilla reference signal, replicate 2":2199,"call":"inactive"}
{"gene":"nrm (neuromusculin)","dsRNA":"DRSC11597","firefly Hh reporter signal, replicate 1":1.97e5,"Renilla reference signal, replicate 1":4835,"call":"inactive"}
{"gene":"nrm (neuromusculin)","dsRNA":"DRSC11599","firefly Hh reporter signal, replicate 1":2.00e5,"Renilla reference signal, replicate 1":3979,"call":"inactive"}
{"gene":"nrm (neuromusculin)","dsRNA":"DRSC11897","firefly Hh reporter signal, replicate 1":78016,"firefly Hh reporter signal, replicate 2":99157,"Renilla reference signal, replicate 1":2544,"Renilla reference signal, replicate 2":2749,"call":"inactive"}

Continued, starting with the last 3 of the part before.
{"gene":"nrm (neuromusculin)","dsRNA":"DRSC11597","firefly Hh reporter signal, replicate 1":1.97e5,"Renilla reference signal, replicate 1":4835,"call":"inactive"}
{"gene":"nrm (neuromusculin)","dsRNA":"DRSC11599","firefly Hh reporter signal, replicate 1":2.00e5,"Renilla reference signal, replicate 1":3979,"call":"inactive"}
{"gene":"nrm (neuromusculin)","dsRNA":"DRSC11897","firefly Hh reporter signal, replicate 1":78016,"firefly Hh reporter signal, replicate 2":99157,"Renilla reference signal, replicate 1":2544,"Renilla reference signal, replicate 2":2749,"call":"inactive"}
{"gene":"CG5863","dsRNA":"DRSC15898","firefly Hh reporter signal, replicate 1":68163,"firefly Hh reporter signal, replicate 2":1.18e5,"Renilla reference signal, replicate 1":1319,"Renilla reference signal, replicate 2":2587,"call":"inactive"}
{"gene":"Prp40 (pre-mRNA processing factor 40)","dsRNA":"DRSC00612","firefly Hh reporter signal, replicate 1":60887,"firefly Hh reporter signal, replicate 2":54666,"Renilla reference signal, replicate 1":3194,"Renilla reference signal, replicate 2":3171,"call":"inactive"}
{"gene":"HLH3B (Helix loop helix protein 3B)","dsRNA":"DRSC18669","firefly Hh reporter signal, replicate 1":51282,"firefly Hh reporter signal, replicate 2":1.69e5,"Renilla reference signal, replicate 1":1081,"Renilla reference signal, replicate 2":6967,"call":"inactive"}
{"gene":"CG9875","dsRNA":"DRSC04585","firefly Hh reporter signal, replicate 1":90210,"firefly Hh reporter signal, replicate 2":61301,"Renilla reference signal, replicate 1":1915,"Renilla reference signal, replicate 2":6086,"call":"inactive"}
{"gene":"ric8b + ric8a","dsRNA":"DRSC18104","firefly Hh reporter signal, replicate 1":88021,"firefly Hh reporter signal, replicate 2":2.87e5,"Renilla reference signal, replicate 1":2748,"Renilla reference signal, replicate 2":9992,"call":"inactive"}
{"gene":"NijC (Ninjurin C)","dsRNA":"DRSC14851","firefly Hh reporter signal, replicate 1":89175,"firefly Hh reporter signal, replicate 2":1.38e5,"Renilla reference signal, replicate 1":3316,"Renilla reference signal, replicate 2":4008,"call":"inactive"}
{"gene":"twf (twinfilin)","dsRNA":"DRSC15466","firefly Hh reporter signal, replicate 1":1.03e5,"firefly Hh reporter signal, replicate 2":71624,"Renilla reference signal, replicate 1":3659,"Renilla reference signal, replicate 2":3121,"call":"inactive"}
{"gene":"p130CAS","dsRNA":"DRSC07862","firefly Hh reporter signal, replicate 1":1.85e5,"firefly Hh reporter signal, replicate 2":3.11e5,"Renilla reference signal, replicate 1":5816,"Renilla reference signal, replicate 2":13094,"call":"inactive"}
{"gene":"p130CAS","dsRNA":"DRSC08257","firefly Hh reporter signal, replicate 1":1.15e5,"firefly Hh reporter signal, replicate 2":93069,"Renilla reference signal, replicate 1":5288,"Renilla reference signal, replicate 2":3989,"call":"inactive"}
{"gene":"Edg91 (Ecdysone-dependent gene 91)","dsRNA":"DRSC16657","firefly Hh reporter signal, replicate 1":67692,"firefly Hh reporter signal, replicate 2":66251,"Renilla reference signal, replicate 1":2487,"Renilla reference signal, replicate 2":1385,"call":"inactive"}
